The target in assay [1] is FRα-GFP fusion expressed on CHO cells transiently transfected with pEGFPN1-FRα (UniProt P15328). Kind of assay: cell immunofluorescence on CHO cells transfected with pEGFPN1-FRα, rabbit anti-His + PE goat anti-rabbit IgG.
Assay [2] shares this target. The experiment in a line: cell immunofluorescence on CHO cells transfected with pEGFPN1-FRα.

Amino acid sequences for entries named in this document (tags omitted). Residues count along the entry.
UniProt P15328, residues 25-234: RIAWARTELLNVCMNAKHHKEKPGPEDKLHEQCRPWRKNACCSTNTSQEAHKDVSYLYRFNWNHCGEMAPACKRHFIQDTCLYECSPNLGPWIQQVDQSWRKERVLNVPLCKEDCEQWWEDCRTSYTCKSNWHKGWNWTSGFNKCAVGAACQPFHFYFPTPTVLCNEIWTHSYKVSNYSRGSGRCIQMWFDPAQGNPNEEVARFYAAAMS

These are yes or no findings as the source states them, for the method shown. Some binding calls cover weakened binding; strength is not graded here.

B1: FR ScFv (靶向叶酸受体α的单链抗体) (scFv, not shown: small tags and cut ends)
scFv: QAQLLESGGGLVQPGGSLRLSCAASGFTFSSYAMSWVRQAPGKGLEWVSAISGSGGSTYYADSVEGRFTISRDNSKNTLYLQMNSLRAEDTAVYYCARRAVGRGWRFWGQGTMVTVSSGGGGSGGGGSGGGGSDIVLTQSPSASGTPGQRVTISCSGSSSNIGSNYVYWYQQLPGTAPKLLIYRNNQRPSGVSDRFSGSKSGTSASLAISGLRSEDEADYYCAAWDDSLSARVFGGGTKVDIKR
Regarding B1, the binding result in assay [1] and in assay [2] was “binds” in each case.

The values above are taken from patent publication CN111393528A.
